Test results as given in the supplement of paper PMC10849652.
The other results are listed elsewhere or left out.

Protein sequences, listed by entry. Tags and fused reporters are not part of them. Lines headed by an entry give the natural chain unless they say otherwise; changes in a name come on top.
UniProt Q9UPY8, whole entry, looked up: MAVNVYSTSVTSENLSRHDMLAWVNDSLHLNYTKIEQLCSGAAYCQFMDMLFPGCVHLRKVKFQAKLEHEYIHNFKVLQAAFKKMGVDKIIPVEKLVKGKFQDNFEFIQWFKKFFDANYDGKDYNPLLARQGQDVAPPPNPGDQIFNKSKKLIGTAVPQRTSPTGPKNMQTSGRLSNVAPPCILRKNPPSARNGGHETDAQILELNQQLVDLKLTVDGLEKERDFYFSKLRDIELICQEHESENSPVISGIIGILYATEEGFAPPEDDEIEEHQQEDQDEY
UniProt Q9UI95, whole entry, looked up: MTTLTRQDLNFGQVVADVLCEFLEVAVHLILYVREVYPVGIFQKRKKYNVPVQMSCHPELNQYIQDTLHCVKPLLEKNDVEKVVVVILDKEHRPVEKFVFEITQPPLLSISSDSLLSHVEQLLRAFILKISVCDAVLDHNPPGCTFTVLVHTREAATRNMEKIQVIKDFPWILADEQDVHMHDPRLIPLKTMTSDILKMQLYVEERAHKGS
UniProt Q13257, whole entry, looked up: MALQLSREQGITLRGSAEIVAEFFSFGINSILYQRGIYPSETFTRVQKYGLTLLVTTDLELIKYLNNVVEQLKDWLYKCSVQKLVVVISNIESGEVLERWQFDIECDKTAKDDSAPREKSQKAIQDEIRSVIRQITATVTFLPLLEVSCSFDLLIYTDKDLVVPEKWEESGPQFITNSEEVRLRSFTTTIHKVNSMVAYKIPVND
UniProt Q9NU23: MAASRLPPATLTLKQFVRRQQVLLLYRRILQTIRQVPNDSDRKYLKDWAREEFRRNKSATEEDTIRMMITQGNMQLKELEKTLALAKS
UniProt Q5U5X0: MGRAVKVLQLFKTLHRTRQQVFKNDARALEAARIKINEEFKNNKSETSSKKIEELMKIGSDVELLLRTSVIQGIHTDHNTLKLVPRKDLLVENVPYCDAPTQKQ
UniProt P43358: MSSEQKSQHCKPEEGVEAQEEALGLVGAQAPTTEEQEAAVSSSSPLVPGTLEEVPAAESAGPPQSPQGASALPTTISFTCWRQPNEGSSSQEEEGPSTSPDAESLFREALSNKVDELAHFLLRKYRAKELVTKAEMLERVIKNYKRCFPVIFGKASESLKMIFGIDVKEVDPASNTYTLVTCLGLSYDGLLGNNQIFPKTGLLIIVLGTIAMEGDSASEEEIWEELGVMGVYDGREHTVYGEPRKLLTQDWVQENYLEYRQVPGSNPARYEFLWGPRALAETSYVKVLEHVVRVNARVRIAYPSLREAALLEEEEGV
UniProt Q8WZA0: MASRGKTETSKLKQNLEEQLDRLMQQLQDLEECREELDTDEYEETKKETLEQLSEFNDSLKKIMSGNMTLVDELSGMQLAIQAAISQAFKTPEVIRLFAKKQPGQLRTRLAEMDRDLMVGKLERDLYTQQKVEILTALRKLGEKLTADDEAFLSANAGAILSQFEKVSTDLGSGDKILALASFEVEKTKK
UniProt O60732: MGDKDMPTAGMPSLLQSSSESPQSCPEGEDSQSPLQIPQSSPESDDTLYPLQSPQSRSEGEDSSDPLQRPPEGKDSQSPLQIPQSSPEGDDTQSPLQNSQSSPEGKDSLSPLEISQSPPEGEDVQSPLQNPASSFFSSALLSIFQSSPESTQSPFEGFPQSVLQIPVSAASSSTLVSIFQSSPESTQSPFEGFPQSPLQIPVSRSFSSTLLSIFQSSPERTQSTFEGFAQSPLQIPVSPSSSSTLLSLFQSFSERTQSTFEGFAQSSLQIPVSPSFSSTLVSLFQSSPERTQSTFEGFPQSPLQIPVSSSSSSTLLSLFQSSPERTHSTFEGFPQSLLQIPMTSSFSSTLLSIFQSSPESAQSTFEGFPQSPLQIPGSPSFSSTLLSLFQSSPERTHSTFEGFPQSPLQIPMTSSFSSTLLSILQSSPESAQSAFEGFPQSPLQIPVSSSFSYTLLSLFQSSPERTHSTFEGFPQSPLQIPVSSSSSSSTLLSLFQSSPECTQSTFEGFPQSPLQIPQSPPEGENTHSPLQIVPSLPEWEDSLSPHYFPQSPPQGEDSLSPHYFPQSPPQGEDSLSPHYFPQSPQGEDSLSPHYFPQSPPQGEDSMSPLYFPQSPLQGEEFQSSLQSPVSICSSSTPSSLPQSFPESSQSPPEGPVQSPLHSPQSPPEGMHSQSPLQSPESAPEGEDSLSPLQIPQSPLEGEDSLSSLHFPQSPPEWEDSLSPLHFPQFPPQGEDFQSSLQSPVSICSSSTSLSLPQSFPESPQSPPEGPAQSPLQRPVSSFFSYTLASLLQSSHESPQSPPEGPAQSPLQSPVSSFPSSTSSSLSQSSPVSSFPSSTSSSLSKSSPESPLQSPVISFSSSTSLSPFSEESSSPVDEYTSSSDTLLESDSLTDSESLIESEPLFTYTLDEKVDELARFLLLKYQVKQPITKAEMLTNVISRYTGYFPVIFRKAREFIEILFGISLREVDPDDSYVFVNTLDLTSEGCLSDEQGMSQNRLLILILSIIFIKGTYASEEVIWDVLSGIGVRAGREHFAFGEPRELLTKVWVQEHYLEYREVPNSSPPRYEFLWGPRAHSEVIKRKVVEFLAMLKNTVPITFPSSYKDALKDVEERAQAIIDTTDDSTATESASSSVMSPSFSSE
UniProt Q7L5Y9: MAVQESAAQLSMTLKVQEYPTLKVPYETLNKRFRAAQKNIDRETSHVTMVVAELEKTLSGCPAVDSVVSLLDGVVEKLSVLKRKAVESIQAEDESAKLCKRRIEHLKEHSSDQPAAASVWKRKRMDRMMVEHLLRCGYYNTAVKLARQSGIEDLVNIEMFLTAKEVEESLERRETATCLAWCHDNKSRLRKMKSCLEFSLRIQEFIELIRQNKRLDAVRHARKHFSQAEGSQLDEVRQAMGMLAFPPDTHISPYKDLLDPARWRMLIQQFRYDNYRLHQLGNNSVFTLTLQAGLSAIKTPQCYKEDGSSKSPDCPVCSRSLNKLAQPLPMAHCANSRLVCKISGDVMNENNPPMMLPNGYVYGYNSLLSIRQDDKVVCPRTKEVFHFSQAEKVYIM
UniProt O14733: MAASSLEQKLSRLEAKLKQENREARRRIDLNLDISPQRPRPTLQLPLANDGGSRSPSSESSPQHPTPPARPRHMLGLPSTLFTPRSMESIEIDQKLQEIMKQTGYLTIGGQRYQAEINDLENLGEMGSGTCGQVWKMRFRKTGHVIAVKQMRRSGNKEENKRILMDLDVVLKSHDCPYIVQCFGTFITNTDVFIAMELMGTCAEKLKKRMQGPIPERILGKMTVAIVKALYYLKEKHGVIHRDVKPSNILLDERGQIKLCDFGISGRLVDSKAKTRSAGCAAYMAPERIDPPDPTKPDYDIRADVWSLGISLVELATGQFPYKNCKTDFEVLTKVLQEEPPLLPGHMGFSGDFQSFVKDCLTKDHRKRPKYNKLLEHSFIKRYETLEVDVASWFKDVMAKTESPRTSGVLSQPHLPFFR
UniProt Q3KQU3: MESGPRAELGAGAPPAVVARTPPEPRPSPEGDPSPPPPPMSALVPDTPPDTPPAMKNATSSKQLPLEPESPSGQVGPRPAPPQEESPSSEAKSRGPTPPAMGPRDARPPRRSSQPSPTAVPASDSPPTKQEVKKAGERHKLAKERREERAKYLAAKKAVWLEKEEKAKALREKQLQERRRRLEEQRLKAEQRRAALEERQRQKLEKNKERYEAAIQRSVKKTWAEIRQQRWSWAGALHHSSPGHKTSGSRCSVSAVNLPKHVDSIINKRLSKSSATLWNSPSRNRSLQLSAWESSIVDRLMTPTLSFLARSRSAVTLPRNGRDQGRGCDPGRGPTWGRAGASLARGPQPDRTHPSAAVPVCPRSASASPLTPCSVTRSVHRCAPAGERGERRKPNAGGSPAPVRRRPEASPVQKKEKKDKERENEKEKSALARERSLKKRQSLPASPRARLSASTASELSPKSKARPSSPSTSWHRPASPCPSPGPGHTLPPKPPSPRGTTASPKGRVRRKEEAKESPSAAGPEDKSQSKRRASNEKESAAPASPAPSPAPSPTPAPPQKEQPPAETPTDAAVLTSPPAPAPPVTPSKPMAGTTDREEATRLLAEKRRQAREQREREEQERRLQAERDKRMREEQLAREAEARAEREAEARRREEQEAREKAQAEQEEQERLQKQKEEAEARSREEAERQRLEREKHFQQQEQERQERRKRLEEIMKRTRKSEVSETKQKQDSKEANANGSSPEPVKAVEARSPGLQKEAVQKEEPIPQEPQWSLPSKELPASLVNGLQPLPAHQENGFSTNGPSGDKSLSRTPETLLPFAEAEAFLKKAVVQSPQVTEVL
UniProt O00754: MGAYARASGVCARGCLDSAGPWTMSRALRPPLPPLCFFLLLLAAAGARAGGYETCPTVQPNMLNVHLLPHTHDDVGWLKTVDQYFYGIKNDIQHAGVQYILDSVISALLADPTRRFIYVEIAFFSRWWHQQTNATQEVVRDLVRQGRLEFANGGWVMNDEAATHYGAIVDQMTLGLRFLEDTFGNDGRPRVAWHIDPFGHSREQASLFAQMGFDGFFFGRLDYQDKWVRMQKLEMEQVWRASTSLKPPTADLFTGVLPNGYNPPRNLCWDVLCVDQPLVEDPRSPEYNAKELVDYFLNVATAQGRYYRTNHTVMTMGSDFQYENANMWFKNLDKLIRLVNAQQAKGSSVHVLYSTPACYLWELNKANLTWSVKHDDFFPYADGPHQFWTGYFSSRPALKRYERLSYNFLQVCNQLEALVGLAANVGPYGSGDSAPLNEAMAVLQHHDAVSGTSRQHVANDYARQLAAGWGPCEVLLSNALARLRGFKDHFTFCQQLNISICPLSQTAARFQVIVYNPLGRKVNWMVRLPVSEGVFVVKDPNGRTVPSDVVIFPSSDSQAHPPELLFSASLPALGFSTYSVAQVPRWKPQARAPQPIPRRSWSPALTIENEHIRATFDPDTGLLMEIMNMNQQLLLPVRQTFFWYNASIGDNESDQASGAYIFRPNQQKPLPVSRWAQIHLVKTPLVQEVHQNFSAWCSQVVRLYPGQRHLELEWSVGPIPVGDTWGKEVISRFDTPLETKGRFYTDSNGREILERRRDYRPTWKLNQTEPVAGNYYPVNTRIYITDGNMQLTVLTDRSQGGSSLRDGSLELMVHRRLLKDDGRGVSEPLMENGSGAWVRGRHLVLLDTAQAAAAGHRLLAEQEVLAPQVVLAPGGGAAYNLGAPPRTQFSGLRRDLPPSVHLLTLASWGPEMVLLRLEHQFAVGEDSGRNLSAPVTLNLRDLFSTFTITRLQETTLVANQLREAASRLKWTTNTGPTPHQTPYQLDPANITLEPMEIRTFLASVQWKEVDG
UniProt Q15013: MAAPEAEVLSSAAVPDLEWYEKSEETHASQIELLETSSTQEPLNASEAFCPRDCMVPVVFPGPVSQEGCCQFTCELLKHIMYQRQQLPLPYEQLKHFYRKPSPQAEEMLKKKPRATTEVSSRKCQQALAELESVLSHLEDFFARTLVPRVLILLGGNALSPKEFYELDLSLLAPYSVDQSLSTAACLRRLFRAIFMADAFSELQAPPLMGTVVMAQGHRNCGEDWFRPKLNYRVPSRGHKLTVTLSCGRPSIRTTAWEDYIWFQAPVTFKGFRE
UniProt Q66K74: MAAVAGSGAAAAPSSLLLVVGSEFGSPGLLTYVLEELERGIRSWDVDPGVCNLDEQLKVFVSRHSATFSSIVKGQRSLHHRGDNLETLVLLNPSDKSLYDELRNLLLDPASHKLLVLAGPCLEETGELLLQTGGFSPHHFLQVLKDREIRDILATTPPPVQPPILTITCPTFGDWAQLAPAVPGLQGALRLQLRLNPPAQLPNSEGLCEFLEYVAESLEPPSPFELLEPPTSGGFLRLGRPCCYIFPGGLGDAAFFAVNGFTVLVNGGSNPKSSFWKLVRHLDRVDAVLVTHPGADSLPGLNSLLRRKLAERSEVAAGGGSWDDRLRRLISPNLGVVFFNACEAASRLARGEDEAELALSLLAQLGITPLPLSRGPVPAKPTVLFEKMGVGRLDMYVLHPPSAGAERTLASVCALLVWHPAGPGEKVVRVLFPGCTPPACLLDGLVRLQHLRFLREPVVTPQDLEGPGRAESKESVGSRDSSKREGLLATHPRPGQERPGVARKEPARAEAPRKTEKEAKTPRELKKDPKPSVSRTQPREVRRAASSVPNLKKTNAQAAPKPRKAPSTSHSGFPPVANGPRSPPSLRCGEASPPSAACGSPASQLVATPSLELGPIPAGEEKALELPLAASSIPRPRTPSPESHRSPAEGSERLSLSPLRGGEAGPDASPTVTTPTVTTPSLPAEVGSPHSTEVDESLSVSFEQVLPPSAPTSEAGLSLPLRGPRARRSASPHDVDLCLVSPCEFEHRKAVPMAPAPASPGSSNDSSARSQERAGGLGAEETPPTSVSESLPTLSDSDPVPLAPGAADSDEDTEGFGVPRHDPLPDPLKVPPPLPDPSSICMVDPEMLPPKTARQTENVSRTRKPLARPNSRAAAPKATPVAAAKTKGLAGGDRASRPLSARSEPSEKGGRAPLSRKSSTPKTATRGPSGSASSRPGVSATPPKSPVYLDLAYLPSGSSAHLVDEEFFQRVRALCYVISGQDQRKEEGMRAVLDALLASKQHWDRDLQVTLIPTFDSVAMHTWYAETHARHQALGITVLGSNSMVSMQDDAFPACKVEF

Columns and labels:
Assay in all cases: log2 fold change, soluble protein after heating vs DMSO (PISA); higher = thermal stabilisation; K562 lysate, 10 uM; active = over 0.2 and 3.5 SD of the protein, either way, in both replicates (recomputed)
alvocidib = compound: CN1CC[C@H](c2c(O)cc(O)c3c(=O)cc(-c4ccccc4Cl)oc23)[C@H](O)C1 [alvocidib]
In short: (§1)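 Thermal stability, expressed as log-two fold change relative to solvent controls, is given from duplicates. Crude K562 extract in PBS pH 7.4 with 1 mM MgCl2, at 1 mg/mL protein, was treated with 10 μM compound for 30 min and heated in aliquots for 3 min across 48°C-58°C. After pooling, adjustment to 0.5% NP-40 at 4°C and centrifugation at 21,000xg for 90 min, supernatant protein was measured by TMTpro 16plex LC-MS/MS with channel sums equalised.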

Tubastatin A = compound: CN1CCc2c(c3ccccc3n2Cc2ccc(C(=O)NO)cc2)C1 [Tubastatin A]
In short: as §1

[1] = compound: CNC(=O)C1=CC=CC=C1NC2=NC(=NC=C2Cl)NC3=C(C=C(C=C3)N4CCOCC4)OC
In short: as §1

defactinib = compound: CNC(=O)c1ccc(Nc2ncc(C(F)(F)F)c(NCc3nccnc3N(C)S(C)(=O)=O)n2)cc1 [defactinib]
In short: as §1

[2] = compound: CNc1nc(-c2ccc3c(N)n[nH]c3c2)cc(N2C[C@@H](C(=O)NC3CCCCC3)CC[C@H]2C)n1
In short: as §1

encorafenib = compound: COC(=O)N[C@@H](C)CNc1nccc(-c2cn(C(C)C)nc2-c2cc(Cl)cc(NS(C)(=O)=O)c2F)n1 [encorafenib]
In short: as §1

[3] = compound: COC(=O)[C@H](CCSC)NC(=O)C1=C(C=C(C=C1)NC[C@H](CS)N)C2=CC=CC=C2
In short: as §1

alisertib = compound: COc1cc(Nc2ncc3c(n2)-c2ccc(Cl)cc2C(c2c(F)cccc2OC)=NC3)ccc1C(=O)O [alisertib]
In short: as §1

[4] = compound: COc1cc2nc(-c3cc(F)ccc3O)nc(N[C@@H]3CNC[C@H]3C(C)(C)O)c2cc1OC
In short: as §1

gefitinib = compound: COc1cc2ncnc(Nc3ccc(F)c(Cl)c3)c2cc1OCCCN1CCOCC1 [gefitinib]
In short: as §1

Measured: log2 fold change

LTN1 isoform 3 (UniProt O94822)
inactive: alvocidib 0.016 | Tubastatin A -0.259 | [1] -0.014 | defactinib -0.009 | [2] -0.063 | encorafenib 0.034 | [3] -0.072 | alisertib 0.017 | [4] 0.035 | gefitinib -0.021

MARK2 (UniProt E9PC69)
inactive: alvocidib -0.032 | Tubastatin A -0.049 | [1] -0.187 | defactinib -0.087 | [2] 0.056 | encorafenib 0.181 | [3] 0.211 | alisertib 0.021 | [4] 0.01 | gefitinib -0.03

LYRM4 (UniProt Q9HD34)
inactive: alvocidib 0.013 | Tubastatin A 0.068 | [1] -0.042 | defactinib 0 | [2] 0.036 | encorafenib -0.008 | [3] 0 | alisertib 0.007 | [4] 0 | gefitinib 0.008

LUZP1 (UniProt Q86V48)
inactive: alvocidib -0.027 | Tubastatin A -0.061 | [1] 0.099 | defactinib -0.056 | [2] 0.004 | encorafenib 0.023 | [3] -0.074 | alisertib -0.014 | [4] 0.012 | gefitinib 0.039

MAN1B1 (UniProt Q9UKM7)
inactive: alvocidib -0.056 | Tubastatin A 0.008 | [1] 0.014 | defactinib 0.028 | [2] -0.001 | encorafenib 0.073 | [3] -0.111 | alisertib 0.086 | [4] -0.005 | gefitinib 0.013

MARK1 (UniProt Q9P0L2)
inactive: alvocidib -0.053 | Tubastatin A -0.087 | [1] -0.27 | defactinib -0.267 | [2] 0.072 | encorafenib 0.075 | [3] 0.226 | alisertib -0.007 | [4] -0.134 | gefitinib -0.004

MAPRE3 (UniProt Q9UPY8)
inactive: alvocidib 0.049 | Tubastatin A -0.028 | [1] -0.007 | defactinib -0.01 | [2] -0.018 | encorafenib 0.01 | [3] -0.032 | alisertib 0.017 | [4] -0.016 | gefitinib 0.049

MAD2L2 (UniProt Q9UI95)
inactive: alvocidib -0.026 | Tubastatin A 0.051 | [1] 0.033 | defactinib 0.06 | [2] 0.064 | encorafenib -0.069 | [3] 0.022 | alisertib 0.04 | [4] 0.135 | gefitinib -0.006

MAD2L1 (UniProt Q13257)
inactive: alvocidib -0.07 | Tubastatin A 0.008 | [1] 0.027 | defactinib -0.029 | [2] 0.007 | encorafenib 0.007 | [3] 0.001 | alisertib 0.022 | [4] 0.016 | gefitinib 0.018

MANBA (UniProt O00462)
inactive: alvocidib -0.009 | Tubastatin A -0.005 | [1] 0.008 | defactinib 0.03 | [2] 0.028 | encorafenib 0.03 | [3] -0.048 | alisertib -0.007 | [4] -0.044 | gefitinib 0.027

MACF1, A0A5F9ZGX0
inactive: alvocidib 0

MASTL (UniProt Q96GX5)
inactive: alvocidib -0.01 | Tubastatin A -0.151 | [1] 0.007 | defactinib -0.104 | [2] -0.017 | encorafenib 0 | [3] 0.008 | alisertib 0.05 | [4] 0.08 | gefitinib -0.003

LYRM2 (UniProt Q9NU23)
inactive: alvocidib 0.003 | Tubastatin A 0.048 | [1] -0.019 | defactinib 0.027 | [2] 0.045 | encorafenib -0.024 | [3] 0.028 | alisertib 0.024 | [4] -0.031 | gefitinib -0.005

LYRM7 (UniProt Q5U5X0)
inactive: alvocidib 0.046 | Tubastatin A 0.019 | [1] 0.005 | defactinib -0.072 | [2] 0.022 | encorafenib -0.038 | [3] -0.04 | alisertib 0.046 | [4] -0.065 | gefitinib 0.019

MAGEA4 (UniProt P43358)
inactive: alvocidib -0.066 | Tubastatin A -0.013 | [1] -0.029 | defactinib 0.175 | [2] -0.078 | encorafenib 0.103 | [3] -0.022 | alisertib -0.019 | [4] -0.04 | gefitinib 0.128

MAP1A (UniProt P78559)
inactive: alvocidib -0.01 | Tubastatin A -0.007 | [1] 0.02 | defactinib -0.001 | [2] 0.004 | encorafenib -0.007 | [3] 0.023 | alisertib 0.004 | [4] -0.009 | gefitinib -0.016

MAGEB10 (UniProt Q96LZ2)
inactive: alvocidib -0.38

LZIC isoform 2 (UniProt Q8WZA0)
inactive: alvocidib 0.023 | Tubastatin A 0.042 | [1] 0.004 | defactinib 0.007 | [2] 0.023 | encorafenib -0.013 | [3] -0.044 | alisertib 0.002 | [4] -0.002 | gefitinib -0.018

MAGEC1 (UniProt O60732)
inactive: alvocidib -0.018 | Tubastatin A -0.087 | [1] 0.042 | defactinib 0.006 | [2] -0.034 | encorafenib 0.039 | [3] 0.053 | alisertib -0.01 | [4] -0.029 | gefitinib 0.004

6 successive entries already listed:
LYRM2 (UniProt Q9NU23)
inactive: alvocidib 0.003 | Tubastatin A 0.048 | [1] -0.019 | defactinib 0.027 | [2] 0.045 | encorafenib -0.024 | [3] 0.028 | alisertib 0.024 | [4] -0.031 | gefitinib -0.005

LYRM7 (UniProt Q5U5X0)
inactive: alvocidib 0.046 | Tubastatin A 0.019 | [1] 0.005 | defactinib -0.072 | [2] 0.022 | encorafenib -0.038 | [3] -0.04 | alisertib 0.046 | [4] -0.065 | gefitinib 0.019

MAGEA4 (UniProt P43358)
inactive: alvocidib -0.066 | Tubastatin A -0.013 | [1] -0.029 | defactinib 0.175 | [2] -0.078 | encorafenib 0.103 | [3] -0.022 | alisertib -0.019 | [4] -0.04 | gefitinib 0.128

MAP1A (UniProt P78559)
inactive: alvocidib -0.01 | Tubastatin A -0.007 | [1] 0.02 | defactinib -0.001 | [2] 0.004 | encorafenib -0.007 | [3] 0.023 | alisertib 0.004 | [4] -0.009 | gefitinib -0.016

MAGEB10 (UniProt Q96LZ2)
inactive: alvocidib -0.38

LZIC isoform 2 (UniProt Q8WZA0)
inactive: alvocidib 0.023 | Tubastatin A 0.042 | [1] 0.004 | defactinib 0.007 | [2] 0.023 | encorafenib -0.013 | [3] -0.044 | alisertib 0.002 | [4] -0.002 | gefitinib -0.018

Following part.

MAP2K2 (UniProt P36507)
inactive: alvocidib 0.022 | Tubastatin A -0.026 | [1] 0.198 | defactinib 0.036 | [2] 0.015 | encorafenib -0.046 | [3] -0.006 | alisertib -0.013 | [4] 0.009 | gefitinib -0.013

MAGED4 isoform 4 (UniProt Q96JG8)
inactive: alvocidib -0.077

MAEA (UniProt Q7L5Y9)
inactive: alvocidib 0.014 | Tubastatin A -0.076 | [1] 0.032 | defactinib -0.011 | [2] -0.048 | encorafenib -0.024 | [3] 0.042 | alisertib 0 | [4] -0.017 | gefitinib -0.004

MAP2K7 isoform 4 (UniProt O14733)
inactive: alvocidib 0.023 | Tubastatin A -0.15 | [1] 0.023 | defactinib -0.035 | [2] 0.036 | encorafenib -0.059 | [3] 0.177 | alisertib 0.006 | [4] -0.009 | gefitinib -0.08

MARCKSL1 (UniProt P49006)
inactive: alvocidib 0.101 | Tubastatin A -0.026 | [1] -0.022 | defactinib 0.208 | [2] -0.052 | encorafenib -0.02 | [3] -0.031 | alisertib -0.04 | [4] 0 | gefitinib 0.04

LUC7L2 (UniProt Q9Y383)
inactive: alvocidib -0.081 | Tubastatin A 0.03 | [1] -0.039 | defactinib -0.063 | [2] -0.058 | encorafenib 0.026 | [3] -0.029 | alisertib 0.001 | [4] -0.005 | gefitinib -0.003

MAP7D1 (UniProt Q3KQU3)
inactive: alvocidib -0.061 | Tubastatin A -0.032 | [1] 0.066 | defactinib 0.02 | [2] 0.041 | encorafenib 0.034 | [3] -0.016 | alisertib -0.036 | [4] 0.005 | gefitinib -0.006

MAGI3 isoform 1 (UniProt Q5TCQ9)
inactive: alvocidib -0.089 | Tubastatin A -0.119 | [1] -0.049 | defactinib -0.037 | [2] -0.053 | encorafenib -0.041 | [3] 0.019 | alisertib -0.009 | [4] 0.012 | gefitinib -0.141

MAP4 (UniProt P27816)
inactive: alvocidib -0.023 | Tubastatin A 0.043 | [1] 0.016 | defactinib -0.02 | [2] 0.037 | encorafenib -0.024 | [3] -0.031 | alisertib -0.007 | [4] 0.014 | gefitinib -0.02

MAN2B1 (UniProt O00754)
inactive: alvocidib 0.039 | Tubastatin A 0.008 | [1] -0.014 | defactinib 0.015 | [2] -0.013 | encorafenib 0.016 | [3] -0.027 | alisertib 0.083 | [4] -0.014 | gefitinib 0.083

MAD2L1BP isoform 3 (UniProt Q15013)
inactive: alvocidib 0.047 | Tubastatin A -0.135 | [1] 0.088 | defactinib 0.068 | [2] -0.012 | encorafenib 0.138 | [3] 0.234 | alisertib 0.052 | [4] -0.009 | gefitinib -0.054

MAP1S (UniProt Q66K74)
inactive: alvocidib 0.027 | Tubastatin A -0.072 | [1] -0.01 | defactinib 0.018 | [2] -0.015 | encorafenib 0.008 | [3] 0.06 | alisertib 0.006 | [4] -0.008 | gefitinib -0.021

LZTS1 (UniProt Q9Y250)
inactive: alvocidib 0.054 | Tubastatin A 0.326 | [1] -0.037 | defactinib -0.101 | [2] 0.709 | encorafenib -0.071 | [3] 0.001 | alisertib -0.022 | [4] 0.129 | gefitinib -0.08
